No constants are given. Whether binding was seen depends on the method and setting. Binding seen in cells or lysates may run through a third protein. Here binding means that the protein was enriched with, or labelled near, the bait; the list need not be complete. For part of these data: No binding means not detected with the bait.
T1: translation initiation factor aIF2 alpha subunit (Haloferax volcanii) (UniProt D4GT46)
T1 sequence: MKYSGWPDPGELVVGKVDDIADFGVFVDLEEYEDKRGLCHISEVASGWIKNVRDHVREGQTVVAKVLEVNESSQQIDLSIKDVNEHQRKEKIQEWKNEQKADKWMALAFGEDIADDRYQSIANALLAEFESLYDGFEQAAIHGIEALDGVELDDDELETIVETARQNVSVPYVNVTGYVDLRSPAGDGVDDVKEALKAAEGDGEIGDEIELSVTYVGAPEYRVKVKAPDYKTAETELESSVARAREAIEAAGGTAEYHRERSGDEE

Chains of the proteins cited; added tags and fusions are not shown. Lines headed by an entry give the natural chain unless they say otherwise; changes in a name come on top.
UniProt D4GZ79: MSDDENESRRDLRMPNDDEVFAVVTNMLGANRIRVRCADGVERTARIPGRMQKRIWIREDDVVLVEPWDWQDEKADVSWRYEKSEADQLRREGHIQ

T2: translation initiation factor aIF2 beta subunit (aIF2β-1) (Haloferax volcanii) (UniProt D4GZP2)
T2 sequence: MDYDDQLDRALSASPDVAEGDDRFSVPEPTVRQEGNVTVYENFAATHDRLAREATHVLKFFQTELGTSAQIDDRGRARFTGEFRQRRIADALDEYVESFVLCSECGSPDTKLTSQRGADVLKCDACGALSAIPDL

T3: translation initiation factor aIF2 beta subunit / probable RNA-binding protein (aIF2β-2) (Haloferax volcanii) (UniProt D4GVV8)
T3 sequence: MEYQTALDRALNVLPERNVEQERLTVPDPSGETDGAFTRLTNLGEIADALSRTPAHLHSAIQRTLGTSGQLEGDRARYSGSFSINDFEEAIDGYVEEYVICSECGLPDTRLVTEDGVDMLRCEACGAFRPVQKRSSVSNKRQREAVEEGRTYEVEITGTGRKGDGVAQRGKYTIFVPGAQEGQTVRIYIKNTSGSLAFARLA

T4: translation initiation factor aIF2 gamma subunit (Haloferax volcanii) (UniProt D4GTD4)
T4 sequence: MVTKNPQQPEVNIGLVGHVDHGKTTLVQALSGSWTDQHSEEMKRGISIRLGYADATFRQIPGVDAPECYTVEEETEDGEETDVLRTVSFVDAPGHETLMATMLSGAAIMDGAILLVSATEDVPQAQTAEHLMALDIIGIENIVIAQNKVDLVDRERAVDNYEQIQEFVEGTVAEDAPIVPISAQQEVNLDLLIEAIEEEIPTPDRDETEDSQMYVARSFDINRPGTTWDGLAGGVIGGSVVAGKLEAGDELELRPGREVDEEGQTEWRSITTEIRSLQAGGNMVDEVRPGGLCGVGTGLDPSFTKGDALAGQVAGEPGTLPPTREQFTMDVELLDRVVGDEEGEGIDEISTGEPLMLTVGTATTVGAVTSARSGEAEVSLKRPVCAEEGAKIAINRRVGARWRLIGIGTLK

T5: DNA-directed RNA polymerase subunit Rpo2N (Haloferax volcanii) (UniProt D4GZX4)
T5 sequence: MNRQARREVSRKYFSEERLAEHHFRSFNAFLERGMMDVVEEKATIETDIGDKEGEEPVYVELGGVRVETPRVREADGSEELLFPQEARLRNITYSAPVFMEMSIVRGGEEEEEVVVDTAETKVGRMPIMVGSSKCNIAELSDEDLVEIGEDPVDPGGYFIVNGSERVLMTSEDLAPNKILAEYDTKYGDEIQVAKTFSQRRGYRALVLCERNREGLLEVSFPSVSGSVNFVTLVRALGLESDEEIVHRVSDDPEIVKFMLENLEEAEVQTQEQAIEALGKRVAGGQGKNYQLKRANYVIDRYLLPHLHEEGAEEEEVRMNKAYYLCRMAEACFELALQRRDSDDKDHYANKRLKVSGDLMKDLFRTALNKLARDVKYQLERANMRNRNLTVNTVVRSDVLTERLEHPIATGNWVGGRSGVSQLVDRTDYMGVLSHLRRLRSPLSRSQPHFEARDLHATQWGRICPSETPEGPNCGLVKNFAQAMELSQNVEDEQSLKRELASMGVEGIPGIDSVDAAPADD

T6: eIF-2B domain protein (aIF2Bδ) (Haloferax volcanii) (UniProt D4GW08)
T6 sequence: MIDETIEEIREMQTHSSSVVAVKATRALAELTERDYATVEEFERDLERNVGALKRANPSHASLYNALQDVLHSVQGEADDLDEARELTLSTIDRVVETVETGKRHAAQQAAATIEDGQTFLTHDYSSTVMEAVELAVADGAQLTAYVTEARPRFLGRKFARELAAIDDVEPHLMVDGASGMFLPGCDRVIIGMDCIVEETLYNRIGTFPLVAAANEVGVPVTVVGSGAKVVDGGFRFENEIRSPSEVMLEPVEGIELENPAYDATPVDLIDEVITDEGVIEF

B1: NUDIX family hydrolase/eIF-2B domain protein (protein, UniProt D4GTG3 1-413)
chain: MPHVATVFLRHDGRVLLTRRSDAVGTYQGRWAGVSGYVEGDPADAERDARRELAEEVGVRETDAELVRAGEPLTVTDEGREWTVHPFLFDARSRDIDTDEELAAVEWVHPTAIREREAVPGLWATYRRVAPAVETVADDETHGSTWISLRALEVLRDAAAEADSLEAVASVARRLRDARPNMAAVENRVNRVMAESDSDPESVRRRAEAAIDAAAEADDAAAARAAELIRERGVDRLATLSRSGTVLAALEAAEAAAVAVLVSESRPGGEGVGVAERLARDGRDVTLTTDAALPGLVAAGGADAVLLGADSVLASGGVVNKVGSLPAALAAARADVPVFAVCARDKVRGDDRFAGEDAGALYDGEAAIGTENPLFEVVPADSLSGVVTESGVLNAGDIGAVADEHAALAAWDD

What was measured:
Assay in all cases: affinity purification with mass spectrometry; N-His6 bait overproduced in H. volcanii; cytoplasmic extract on nickel chelating sepharose at room temperature in 2.1 M NaCl, 20 mM HEPES, 20 mM imidazole; four washes with 30 mM imidazole, elution with 700 mM imidazole; no RNase step, no cross-linking; co-isolated proteins identified by LC-MS/MS; three biological replicates; proteins found in the empty-vector or DHFR controls removed
[1] = target: T1, translation initiation factor aIF2 alpha subunit (Haloferax volcanii)
[2] = target: T2, translation initiation factor aIF2 beta subunit (aIF2β-1) (Haloferax volcanii)
[3] = target: T3, translation initiation factor aIF2 beta subunit / probable RNA-binding protein (aIF2β-2) (Haloferax volcanii)
[4] = target: T4, translation initiation factor aIF2 gamma subunit (Haloferax volcanii)
[5] = target: T5, DNA-directed RNA polymerase subunit Rpo2N (Haloferax volcanii)
[6] = target: T6, eIF-2B domain protein (aIF2Bδ) (Haloferax volcanii)

| Molecule | binding [1] | binding [2] | binding [3] | binding [4] | binding [5] | binding [6] |
| --- | --- | --- | --- | --- | --- | --- |
| translation initiation factor aIF-1A (aIF1A1) (from UniProt D4GZ79) | no binding | no binding | no binding | no binding |  |  |
| B1 |  |  |  |  | binds | no binding |

Reference: PMC8576121
